These results are taken from paper PMC7493027, “Mps1 dimerization and multisite interactions with Ndc80 complex enable responsive spindle assembly checkpoint signaling” (Journal of Molecular Cell Biology, 2020).

This test has as its target GST-tagged Ndc80C^Bonsai. The test can be described thus: pull-down; GST-tagged Ndc80C^Bonsai as affinity matrix; MBP-tagged Mps1 truncations pulled down (Supplementary Figure S2F); both purified.

These are yes or no findings as the source states them, for the method shown. Binding can be weak; no strength is given. Sequences can lack the tags named with a protein.

B1: MBP-tagged Mps1^NTE–TPR (domain or fragment, UniProt P33981 1-192)
chain: MESEDLSGRELTIDSIMNKVRDIKNKFKNEDLTDELSLNKISADTTDNSGTVNQIMMMANNPEDWLSLLLKLEKNSVPLSDALLNKLIGRYSQAIEALPPDKYGQNESFARIQVRFAELKAIQEPDDARDYFQMARANCKKFAFVHISFAQFELSQGNVKKSKQLLQKAVERGAVPLEMLEIALRNLNLQKK
Regarding B1, the binding result is on record as “binds”.

B2: MBP-tagged Mps1^TPR–CTE (domain or fragment, UniProt P33981 62-300)
chain: PEDWLSLLLKLEKNSVPLSDALLNKLIGRYSQAIEALPPDKYGQNESFARIQVRFAELKAIQEPDDARDYFQMARANCKKFAFVHISFAQFELSQGNVKKSKQLLQKAVERGAVPLEMLEIALRNLNLQKKQLLSEEEKKNLSASTVLTAQESFSGSLGHLQNRNNSCDSRGQTTKARFLYGENMPPQDAEIGYRNSLRQTNKTKQSCPFGRVPVNLLNSPDCDVKTDDSVVPCFMKRQ
With B2, the binding result is recorded as “binds”.

B3: MBP-tagged Mps1 tetratricopeptide repeat domain (TPR, amino acids 62–192) (domain or fragment, human, UniProt P33981 62-192, looked up)
chain: PEDWLSLLLKLEKNSVPLSDALLNKLIGRYSQAIEALPPDKYGQNESFARIQVRFAELKAIQEPDDARDYFQMARANCKKFAFVHISFAQFELSQGNVKKSKQLLQKAVERGAVPLEMLEIALRNLNLQKK
notes: Mps1, human, tetratricopeptide repeat domain, amino acids 62-192; also called Mps1^TPR; source: Escherichia coli, purified
On to B3, for which the binding entry is reported as “binds”.

B4: MBP-tagged Mps1 N-terminal fragment (amino acids 1–300), Mps1^N300 (domain or fragment, UniProt P33981 1-300)
chain: MESEDLSGRELTIDSIMNKVRDIKNKFKNEDLTDELSLNKISADTTDNSGTVNQIMMMANNPEDWLSLLLKLEKNSVPLSDALLNKLIGRYSQAIEALPPDKYGQNESFARIQVRFAELKAIQEPDDARDYFQMARANCKKFAFVHISFAQFELSQGNVKKSKQLLQKAVERGAVPLEMLEIALRNLNLQKKQLLSEEEKKNLSASTVLTAQESFSGSLGHLQNRNNSCDSRGQTTKARFLYGENMPPQDAEIGYRNSLRQTNKTKQSCPFGRVPVNLLNSPDCDVKTDDSVVPCFMKRQ
B4: the binding entry is recorded as “binds”.
